Literature values as cited in patent publication US20180318263A1 (The Regents of the University of Colorado, a body corporate, priority 2016, published 2018).
At least one structure is not confirmed: it was looked up by name or label, or the drawing left a doubt.

System: cells
Conditions: Schlaepfer et al., 2015, Oncotarget; cited from earlier work

For `Cc1ccc(-c2cc(C(F)(F)F)nn2-c2ccc(S(N)(=O)=O)cc2)cc1` [celecoxib], the “growth of cells in response to hypoxia-reoxygenation” value is listed as “block the growth of cells”.
